# Reference: the supplement of paper PMC8728848
# The other results are listed elsewhere or left out.
# B1: Pbx2CASH domain (Cryptococcus neoformans) (protein)
# chain: GIPGPNRLYRLSGPIIFTAADQEIATYGYPTGSERAVLRVEGRNTATAIQGDCRRCARVSVKNLVVDGNRKKLGRMRDFQLATGLVVLGGNEGQSIQNSWIKNPRGFTAIHIREGDKLQCSGARVEKNEIGPVGEEYDPEKDGDDPEMSPLGRPLADGVSIACRDSFIRDNTFRDNTDAAIVVYCSPGTLIHA
# Key:
# Assay in all cases: glycan array binding signal (z-score within array); higher = stronger binding
# Settings in all cases: glycan notation: IUPAC condensed, linker removed
# [1] = target: Neu5Ac(a2-3)Gal(b1-4)GlcNAc(b1-2)[Neu5Ac(a2-3)Gal(b1-4)GlcNAc(b1-6)]Man(a1-6)[Neu5Ac(a2-3)Gal(b1-4)GlcNAc(b1-2)Man(a1-3)]Man(b1-4)GlcNAc(b1-4)GlcNAc
# How it was run: (§1)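 Glycan array data were curated from 3228 arrays in the Consortium for Functional Glycomics database and kept only where the protein sequence was available. Glycan names were converted to IUPAC-condensed notation, and columns mapping to the same glycan were averaged. The binding signal is a within-array Z-score, averaged across arrays of the same protein sequence at different concentrations or buffers and across linkers. Negative Z-scores can be read as non-binding.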
# [2] = target: Neu5Ac(a2-3)Gal(b1-4)GlcNAc(b1-2)[Neu5Ac(a2-3)Gal(b1-4)GlcNAc(b1-6)]Man(a1-6)[Neu5Ac(a2-3)Gal(b1-4)GlcNAc(b1-2)Man(a1-3)][GlcNAc(b1-4)]Man(b1-4)GlcNAc(b1-4)GlcNAc
# How it was run: as §1
# [3] = target: Neu5Ac(a2-3)Gal(b1-4)GlcNAc(b1-3)Gal
# How it was run: as §1
# [4] = target: Neu5Ac(a2-3)Gal(b1-4)GlcNAc(b1-3)Gal(b1-3)GlcNAc
# How it was run: as §1
# [5] = target: Neu5Ac(a2-3)Gal(b1-4)GlcNAc(b1-3)Gal(b1-4)GlcNAc
# How it was run: as §1
# [6] = target: Neu5Ac(a2-3)Gal(b1-4)GlcNAc(b1-3)Gal(b1-4)GlcNAc(b1-2)Man(a1-3)[Neu5Ac(a2-3)Gal(b1-4)GlcNAc(b1-3)Gal(b1-4)GlcNAc(b1-2)Man(a1-6)]Man(b1-4)GlcNAc(b1-4)GlcNAc
# How it was run: as §1
# [7] = target: Neu5Ac(a2-3)Gal(b1-4)GlcNAc(b1-3)Gal(b1-4)GlcNAc(b1-3)Gal(b1-4)GlcNAc
# How it was run: as §1
# [8] = target: Neu5Ac(a2-3)Gal(b1-4)GlcNAc(b1-3)Gal(b1-4)GlcNAc(b1-3)Gal(b1-4)GlcNAc(b1-2)Man(a1-3)[Neu5Ac(a2-3)Gal(b1-4)GlcNAc(b1-3)Gal(b1-4)GlcNAc(b1-3)Gal(b1-4)GlcNAc(b1-2)Man(a1-6)]GalNAc
# How it was run: as §1
# [9] = target: Neu5Ac(a2-3)Gal(b1-4)GlcNAc(b1-3)Gal(b1-4)GlcNAc(b1-3)GalNAc
# How it was run: as §1
# [10] = target: Neu5Ac(a2-3)Gal(b1-4)GlcNAc(b1-3)Gal(b1-4)GlcNAc(b1-3)[Neu5Ac(a2-3)Gal(b1-4)GlcNAc(b1-3)Gal(b1-4)GlcNAc(b1-6)]GalNAc
# How it was run: as §1
# [11] = target: Neu5Ac(a2-3)Gal(b1-4)GlcNAc(b1-3)Gal(b1-4)GlcNAc(b1-6)[Gal(b1-3)]GalNAc
# How it was run: as §1
# [12] = target: Neu5Ac(a2-3)Gal(b1-4)GlcNAc(b1-3)Gal(b1-4)[Fuc(a1-3)]GlcNAc
# How it was run: as §1
# [13] = target: Neu5Ac(a2-3)Gal(b1-4)GlcNAc(b1-3)GalNAc
# How it was run: as §1
# [14] = target: Neu5Ac(a2-3)Gal(b1-4)GlcNAc(b1-3)[Neu5Ac(a2-3)Gal(b1-4)GlcNAc(b1-6)]GalNAc
# How it was run: as §1
# [15] = target: Neu5Ac(a2-3)Gal(b1-4)GlcNAc(b1-6)GalNAc
# How it was run: as §1
# [16] = target: Neu5Ac(a2-3)Gal(b1-4)GlcNAc(b1-6)[Gal(b1-3)]GalNAc
# How it was run: as §1
# [17] = target: Neu5Ac(a2-3)Gal(b1-4)GlcNAc(b1-6)[Neu5Ac(a2-3)Gal(b1-3)]GalNAc
# How it was run: as §1
# [18] = target: Neu5Ac(a2-3)Gal(b1-4)GlcNAc6S
# How it was run: as §1
# [19] = target: Neu5Ac(a2-3)Gal(b1-4)[Fuc(a1-3)]GlcNAc
# How it was run: as §1
# [20] = target: Neu5Ac(a2-3)Gal(b1-4)[Fuc(a1-3)]GlcNAc(b1-2)Man
# How it was run: as §1
# [21] = target: Neu5Ac(a2-3)Gal(b1-4)[Fuc(a1-3)]GlcNAc(b1-3)Gal
# How it was run: as §1
# [22] = target: Neu5Ac(a2-3)Gal(b1-4)[Fuc(a1-3)]GlcNAc(b1-3)Gal(b1-4)GlcNAc
# How it was run: as §1
# [23] = target: Neu5Ac(a2-3)Gal(b1-4)[Fuc(a1-3)]GlcNAc(b1-3)Gal(b1-4)[Fuc(a1-3)]GlcNAc(b1-3)Gal(b1-4)[Fuc(a1-3)]GlcNAc
# How it was run: as §1
# [24] = target: Neu5Ac(a2-3)Gal(b1-4)[Fuc(a1-3)]GlcNAc(b1-3)GalNAc
# How it was run: as §1
# [25] = target: Neu5Ac(a2-3)Gal(b1-4)[Fuc(a1-3)]GlcNAc(b1-6)[Gal(b1-3)]GalNAc
# How it was run: as §1
# [26] = target: Neu5Ac(a2-3)Gal(b1-4)[Fuc(a1-3)]GlcNAc(b1-6)[Neu5Ac(a2-3)Gal(b1-3)]GalNAc
# How it was run: as §1
# [27] = target: Neu5Ac(a2-3)Gal(b1-4)[Fuc(a1-3)]GlcNAc6S
# How it was run: as §1
# [28] = target: Neu5Ac(a2-3)Gal6S(b1-4)GlcNAc
# How it was run: as §1
# [29] = target: Neu5Ac(a2-3)Gal6S(b1-4)[Fuc(a1-3)]GlcNAc
# How it was run: as §1
# Neu5Ac(a2-3)GalNAc = target: Neu5Ac(a2-3)GalNAc
# How it was run: as §1
# [30] = target: Neu5Ac(a2-3)GalNAc(b1-4)GlcNAc
# How it was run: as §1
# [31] = target: Neu5Ac(a2-3)[GalNAc(b1-4)]Gal(b1-4)Glc
# How it was run: as §1
# [32] = target: Neu5Ac(a2-3)[GalNAc(b1-4)]Gal(b1-4)GlcNAc
# How it was run: as §1
# [33] = target: Neu5Ac(a2-3)[GalNAc(b1-4)]Gal(b1-4)GlcNAc(b1-3)GalNAc
# How it was run: as §1
# [34] = target: Neu5Ac(a2-3)[Neu5Ac(a2-6)]GalNAc
# How it was run: as §1
# Neu5Ac(a2-6)Gal = target: Neu5Ac(a2-6)Gal
# How it was run: as §1
# [35] = target: Neu5Ac(a2-6)Gal(b1-3)GlcNAc(b1-3)[Gal(b1-4)GlcNAc(b1-6)]Gal(b1-4)Glc
# How it was run: as §1
# Neu5Ac(a2-6)Gal(b1-4)Glc = target: Neu5Ac(a2-6)Gal(b1-4)Glc
# How it was run: as §1
# [36] = target: Neu5Ac(a2-6)Gal(b1-4)GlcNAc
# How it was run: as §1
# [37] = target: Neu5Ac(a2-6)Gal(b1-4)GlcNAc(b1-2)Man
# How it was run: as §1
# [38] = target: Neu5Ac(a2-6)Gal(b1-4)GlcNAc(b1-2)Man(a1-3)Man(b1-4)GlcNAc(b1-4)GlcNAc
# How it was run: as §1
# [39] = target: Neu5Ac(a2-6)Gal(b1-4)GlcNAc(b1-2)Man(a1-3)[Gal(b1-4)GlcNAc(b1-2)Man(a1-6)]Man(b1-4)GlcNAc(b1-4)GlcNAc
# How it was run: as §1
# [40] = target: Neu5Ac(a2-6)Gal(b1-4)GlcNAc(b1-2)Man(a1-3)[GlcNAc(b1-2)Man(a1-6)]Man(b1-4)GlcNAc(b1-4)GlcNAc
# How it was run: as §1
# [41] = target: Neu5Ac(a2-6)Gal(b1-4)GlcNAc(b1-2)Man(a1-3)[GlcNAc(b1-4)][Neu5Ac(a2-6)Gal(b1-4)GlcNAc(b1-2)Man(a1-6)]Man(b1-4)GlcNAc(b1-4)GlcNAc
# How it was run: as §1
# [42] = target: Neu5Ac(a2-6)Gal(b1-4)GlcNAc(b1-2)Man(a1-3)[Man(a1-6)]Man(b1-4)GlcNAc(b1-4)GlcNAc
# How it was run: as §1
binder,measurement,setting,value
B1,glycan array binding signal (z-score),[1],-0.2
same,glycan array binding signal (z-score),[2],0.05
same,glycan array binding signal (z-score),[3],0.578
same,glycan array binding signal (z-score),[4],-0.059
same,glycan array binding signal (z-score),[5],-0.68
same,glycan array binding signal (z-score),[6],0.281
same,glycan array binding signal (z-score),[7],-0.341
same,glycan array binding signal (z-score),[8],0.561
same,glycan array binding signal (z-score),[9],-0.534
same,glycan array binding signal (z-score),[10],0.079
same,glycan array binding signal (z-score),[11],1.4
same,glycan array binding signal (z-score),[12],-0.714
same,glycan array binding signal (z-score),[13],-0.563
same,glycan array binding signal (z-score),[14],-0.817
same,glycan array binding signal (z-score),[15],-0.514
same,glycan array binding signal (z-score),[16],-0.669
same,glycan array binding signal (z-score),[17],-0.346
same,glycan array binding signal (z-score),[18],-0.48
same,glycan array binding signal (z-score),[19],-0.636
same,glycan array binding signal (z-score),[20],-0.171
same,glycan array binding signal (z-score),[21],-0.502
same,glycan array binding signal (z-score),[22],0.378
same,glycan array binding signal (z-score),[23],-0.779
same,glycan array binding signal (z-score),[24],1.32
same,glycan array binding signal (z-score),[25],0.909
same,glycan array binding signal (z-score),[26],1.01
same,glycan array binding signal (z-score),[27],-0.739
same,glycan array binding signal (z-score),[28],0.099
same,glycan array binding signal (z-score),[29],-0.748
same,glycan array binding signal (z-score),Neu5Ac(a2-3)GalNAc,-0.765
same,glycan array binding signal (z-score),[30],-0.652
same,glycan array binding signal (z-score),[31],-0.95
same,glycan array binding signal (z-score),[32],-0.697
same,glycan array binding signal (z-score),[33],0.539
same,glycan array binding signal (z-score),[34],-0.566
same,glycan array binding signal (z-score),Neu5Ac(a2-6)Gal,-0.221
same,glycan array binding signal (z-score),[35],-0.432
same,glycan array binding signal (z-score),Neu5Ac(a2-6)Gal(b1-4)Glc,-0.289
same,glycan array binding signal (z-score),[36],-0.326
same,glycan array binding signal (z-score),[37],-0.377
same,glycan array binding signal (z-score),[38],0.2
same,glycan array binding signal (z-score),[39],-0.26
same,glycan array binding signal (z-score),[40],0.584
same,glycan array binding signal (z-score),[41],0.933
same,glycan array binding signal (z-score),[42],0.568

# A portion of the results above, for reference:
binder,measurement,setting,value
B1,glycan array binding signal (z-score),[32],-0.697
same,glycan array binding signal (z-score),[33],0.539
same,glycan array binding signal (z-score),[34],-0.566
same,glycan array binding signal (z-score),Neu5Ac(a2-6)Gal,-0.221
same,glycan array binding signal (z-score),[35],-0.432
same,glycan array binding signal (z-score),Neu5Ac(a2-6)Gal(b1-4)Glc,-0.289
same,glycan array binding signal (z-score),[36],-0.326
same,glycan array binding signal (z-score),[37],-0.377
same,glycan array binding signal (z-score),[38],0.2
same,glycan array binding signal (z-score),[39],-0.26
